Results are given in words; binding and its absence hold for the method and conditions named. Binding seen in cells or lysates may run through a third protein. These calls come from enrichment with a bait or labelling near it, and not all partners need be listed. For some assays here: Sequences can lack the tags named with a protein.
What was measured:
[1] = biological target: T1, Distal antenna (Dan), endogenous (Drosophila melanogaster (endogenous in embryos)) (UniProt Q9VBW6); assay: affinity purification with mass spectrometry
T1 sequence: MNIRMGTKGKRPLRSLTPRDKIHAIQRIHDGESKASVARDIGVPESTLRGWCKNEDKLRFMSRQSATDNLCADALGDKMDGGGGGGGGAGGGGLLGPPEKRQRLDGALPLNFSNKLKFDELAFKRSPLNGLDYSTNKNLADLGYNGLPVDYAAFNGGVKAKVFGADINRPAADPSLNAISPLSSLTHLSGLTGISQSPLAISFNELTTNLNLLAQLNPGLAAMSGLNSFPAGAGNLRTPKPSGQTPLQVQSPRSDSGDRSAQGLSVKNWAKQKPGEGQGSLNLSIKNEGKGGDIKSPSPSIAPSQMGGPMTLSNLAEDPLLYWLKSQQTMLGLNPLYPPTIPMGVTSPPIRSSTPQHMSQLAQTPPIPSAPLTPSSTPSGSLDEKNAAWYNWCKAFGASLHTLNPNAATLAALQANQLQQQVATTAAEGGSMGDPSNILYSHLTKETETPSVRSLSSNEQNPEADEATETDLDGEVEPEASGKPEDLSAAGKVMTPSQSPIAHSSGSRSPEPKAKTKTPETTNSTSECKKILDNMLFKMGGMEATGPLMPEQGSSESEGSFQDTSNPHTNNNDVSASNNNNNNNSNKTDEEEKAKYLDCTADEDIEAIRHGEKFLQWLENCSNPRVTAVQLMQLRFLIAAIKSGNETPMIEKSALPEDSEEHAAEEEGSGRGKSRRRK

Amino acid sequences for entries named in this document (tags omitted).
UniProt Q9VWE6: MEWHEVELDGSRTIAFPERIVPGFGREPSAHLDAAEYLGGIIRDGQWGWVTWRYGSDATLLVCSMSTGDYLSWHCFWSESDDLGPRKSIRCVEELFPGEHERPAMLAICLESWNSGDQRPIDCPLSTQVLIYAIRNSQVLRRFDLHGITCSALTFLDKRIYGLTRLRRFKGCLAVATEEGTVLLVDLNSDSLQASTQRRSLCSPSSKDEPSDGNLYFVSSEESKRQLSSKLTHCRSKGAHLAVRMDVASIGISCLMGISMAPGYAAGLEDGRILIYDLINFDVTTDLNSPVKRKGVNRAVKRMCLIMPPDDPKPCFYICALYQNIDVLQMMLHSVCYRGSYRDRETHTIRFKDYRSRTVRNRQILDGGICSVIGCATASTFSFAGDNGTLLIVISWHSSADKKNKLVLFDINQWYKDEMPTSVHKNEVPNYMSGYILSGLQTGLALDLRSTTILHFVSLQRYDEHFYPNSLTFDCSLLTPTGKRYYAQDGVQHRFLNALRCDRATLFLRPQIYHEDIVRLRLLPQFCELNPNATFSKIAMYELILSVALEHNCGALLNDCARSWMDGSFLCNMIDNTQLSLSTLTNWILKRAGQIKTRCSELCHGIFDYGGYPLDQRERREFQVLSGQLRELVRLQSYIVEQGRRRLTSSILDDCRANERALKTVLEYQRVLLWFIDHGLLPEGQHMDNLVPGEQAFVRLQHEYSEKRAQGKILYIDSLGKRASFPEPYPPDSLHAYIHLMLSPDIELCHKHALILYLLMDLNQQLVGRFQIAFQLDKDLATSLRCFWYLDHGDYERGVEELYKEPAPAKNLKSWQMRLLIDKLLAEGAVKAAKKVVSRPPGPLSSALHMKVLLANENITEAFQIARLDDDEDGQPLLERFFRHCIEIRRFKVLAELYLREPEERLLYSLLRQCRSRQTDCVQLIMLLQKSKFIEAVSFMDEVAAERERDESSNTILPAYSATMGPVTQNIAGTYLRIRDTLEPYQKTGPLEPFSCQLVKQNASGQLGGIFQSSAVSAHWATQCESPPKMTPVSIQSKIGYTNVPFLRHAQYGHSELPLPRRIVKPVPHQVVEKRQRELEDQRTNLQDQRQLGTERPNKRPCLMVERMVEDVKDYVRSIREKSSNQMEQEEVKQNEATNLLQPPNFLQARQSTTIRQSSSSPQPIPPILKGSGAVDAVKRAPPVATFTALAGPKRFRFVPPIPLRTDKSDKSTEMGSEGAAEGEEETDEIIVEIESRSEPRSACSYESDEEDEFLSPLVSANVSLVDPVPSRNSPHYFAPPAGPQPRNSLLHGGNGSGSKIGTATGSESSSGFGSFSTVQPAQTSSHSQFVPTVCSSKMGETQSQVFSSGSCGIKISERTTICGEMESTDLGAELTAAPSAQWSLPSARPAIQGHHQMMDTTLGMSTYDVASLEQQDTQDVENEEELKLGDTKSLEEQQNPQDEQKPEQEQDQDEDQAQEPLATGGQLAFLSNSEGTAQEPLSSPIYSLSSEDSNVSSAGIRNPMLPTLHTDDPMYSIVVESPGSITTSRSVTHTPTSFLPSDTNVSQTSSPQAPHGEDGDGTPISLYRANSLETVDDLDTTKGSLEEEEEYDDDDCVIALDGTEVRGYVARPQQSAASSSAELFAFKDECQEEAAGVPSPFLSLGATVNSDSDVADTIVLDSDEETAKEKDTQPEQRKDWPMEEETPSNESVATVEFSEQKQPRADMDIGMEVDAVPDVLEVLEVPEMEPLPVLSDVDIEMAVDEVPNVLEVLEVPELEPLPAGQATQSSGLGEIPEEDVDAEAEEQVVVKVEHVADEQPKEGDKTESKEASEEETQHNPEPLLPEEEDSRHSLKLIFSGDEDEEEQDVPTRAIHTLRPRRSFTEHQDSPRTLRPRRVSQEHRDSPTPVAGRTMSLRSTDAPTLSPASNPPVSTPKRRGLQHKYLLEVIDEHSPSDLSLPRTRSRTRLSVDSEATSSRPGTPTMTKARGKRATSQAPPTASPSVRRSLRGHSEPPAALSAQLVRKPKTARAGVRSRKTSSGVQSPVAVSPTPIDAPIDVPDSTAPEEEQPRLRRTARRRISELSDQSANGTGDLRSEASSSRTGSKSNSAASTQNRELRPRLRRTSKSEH

[2] = biological target: T2, myc-tagged Distal antenna (Dan) (Drosophila melanogaster) (UniProt Q9VBW6); assay: affinity purification with mass spectrometry
T2 sequence: T1 sequence

- binding [1]: binds
- binding [2]: binds
Substance: Elys (from UniProt Q9VWE6 1-2111)
